# Experimental data taken from PubChem BioAssay AID1347075 (National Center for Advancing Translational Sciences (NCATS), 2019).
# Among all 400,000 compounds or so, about 5,500 (1.4%) were called active. Inconclusive means that the source gave no clear call. Such entries were picked first, then a sample of the others. The call rests on the fitted dose curve; in most records, active means well fitted cell-killing curve with a large enough effect; inconclusive means small, poorly fitted or top-dose-only effect, or effect the other way; inactive means flat fitted curve, though single readings scatter. A potency beside an inconclusive call is a rough fit, not a confirmed value.
# Assay: qHTS assay for MDR1-selective chemotherapeutics: Primary screen using the parental adenocarcinoma cell KB-3-1; further: nearly all actives have a fitted effect of over 60% in size
# Settings: KB-3-1 viability, CellTiter-Glo ATP luminescence, 72 h; activity change, negative = cytotoxic: at 46.1 µM (top of the series)
# Outline: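 Viability of parental KB-3-1 cells, measured by CellTiter-Glo luminescence, followed a 72 h incubation at 37 °C with pinned compounds in phenol-red-free DMEM containing 10% FBS.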
# On the % scale 0 is the no-effect control and ±100 the full control effect; potency means the concentration at half of the fitted maximal effect.
Structure (SMILES),Potency,"activity change, negative = cytotoxic"
CCN(CC)CC(C)CNC(=O)c1cc(-c2ccc(Br)s2)nc2ccccc12 (configuration not stated),"inconclusive: 29.1 µM [cytotoxic, single point]",
COc1cc2c(cc1OC)C1(CCCC1)C(N)=C2C#N,"inconclusive: 23.1 µM [cytotoxic, single point]",
CCCCNc1c(-c2cccc(-c3ccc(OC)cc3)c2)nc2cc(C)ccn12,"inconclusive: 29.1 µM [cytotoxic, single point]",
CC(=O)Nc1nc(C(F)(F)F)cs1,"inconclusive: 20.6 µM [rising, single point]",
Oc1ccccc1C=NNc1nc2ccccc2s1,"inconclusive: 23.1 µM [cytotoxic, single point]",
Cc1ccc(NC2SC(=O)N(Cc3cccc(C(=O)O)c3)C2=O)c(C)c1 (configuration not stated),,inconclusive: -0.49%
CCc1nc(NC2CCCCC2)c(C#N)c2c1COC(C)(C)C2,"inconclusive: 29.1 µM [cytotoxic, single point]",
NC(=S)N/N=C/c1ccc(-c2cccc([N+](=O)[O-])c2)o1,"inconclusive: 29.1 µM [cytotoxic, single point]",
CN(C(=O)CSc1nc2ccc(NC(=O)COc3ccc(Cl)cc3)cc2s1)c1ccccc1,"inconclusive: 20.6 µM [cytotoxic, single point]",
Fc1ccc(NC(=S)Nc2ccc(Br)cc2)cc1,"inconclusive: 29.1 µM [cytotoxic, single point]",
Cc1ccnc2ccccc12,"inconclusive: 29.1 µM [rising, single point]",
C/C(=N\Nc1nc2ccccc2c(=O)n1O)c1ccco1,active: 20.6 µM,
CN(Cc1ccccc1NS(=O)(=O)c1ccc2ccccc2c1)C1CCCCC1,inactive,
Cc1nn(-c2ccccc2)c(C)c1C(=O)OCC(=O)c1c(N)n(CC(C)C)c(=O)n(C)c1=O,"inconclusive: 20.6 µM [cytotoxic, partial curve, poor fit]",
Cc1cc(C)c(OCC(=O)Nc2nc3ccccc3[nH]2)c(C)c1,inactive,
O=C(O)CCN1CC2([N+](=O)[O-])CC=C(OCCO)C([N+](=O)[O-])(C1)C2 (configuration not stated),inactive,
CC1(C)N=c2ccc([N+](=O)[O-])c(N)c2=[N+]1[O-],inactive,
COc1ccc(N(CC(=O)N2CCc3ccccc32)S(=O)(=O)c2c(C)noc2C)cc1,"inconclusive: 8.2 µM [cytotoxic, partial curve]",
Clc1ccc(CSC2=NCCCN2)cc1Cl,"inconclusive: 16.4 µM [cytotoxic, single point]",
COc1ccc(N2CCOCC2)c(NC(=O)c2ccc3c(c2)OCO3)c1,inactive,
Fc1ccccc1-c1ccc(/C=N/Nc2nc3ccccc3[nH]2)o1,"inconclusive: 20.6 µM [cytotoxic, single point]",
COc1cccc(CNC(=O)C2CCCN(S(=O)(=O)c3cnc[nH]3)C2)c1 (configuration not stated),inactive,
Cc1ccc(CN(C(=O)c2csnn2)C(C(=O)NC2CCCC2)c2ccco2)cc1 (configuration not stated),"inconclusive: 18.4 µM [cytotoxic, partial curve, poor fit]",
COc1ccc(-c2cn3cc(Br)cnc3n2)cc1,active: 13 µM,

Structure (SMILES),Potency,"activity change, negative = cytotoxic"
CC(C)C[C@H]1CN([C@@H](Cc2ccccc2)CN2CCC[C@@H]2CN2C(=O)C(=O)NC[C@@H]2Cc2ccccc2)C(=O)C(=O)N1CCc1ccccc1,"inconclusive: 29.1 µM [cytotoxic, single point]",
CC1CC(C)CN(c2ncnc3c2cnn3C)C1 (configuration not stated),"inconclusive: 23.1 µM [rising, single point]",
COc1ccc(CNC(=O)CSc2nc3ccccc3nc2Cc2ccccc2)cc1,inactive,
CC(=O)Nc1ccc(NC(=O)CN2CCN(c3ccccn3)CC2)cc1,"inconclusive: 0.0052 µM [rising, full curve]",
Cc1cc(C)n2nc(CNS(=O)(=O)c3c(F)c(F)c(F)c(F)c3F)nc2n1,"inconclusive: 1.46 µM [rising, full curve]",
N#C/C(C(=O)c1ccccc1)=C1/CCCCCN1,"inconclusive: 14.6 µM [rising, partial curve, poor fit]",
Cc1nc(Br)c(Br)n1Cc1ccccc1,"inconclusive: 25.9 µM [cytotoxic, single point]",
NC(CSCc1cccc(Br)c1)C(=O)O (configuration not stated),inactive,
COc1cccc(/C=C/c2nc(C#N)c(NCCN(C)C)o2)c1,inactive,
CCOc1ccc(S(=O)(=O)Nc2ccn(C)n2)cc1,,inconclusive: 2.69%
C=CCn1c(=O)c2ccccc2n2c(SCC(=O)Nc3sc(C(=O)N(CC)CC)c(C)c3C(=O)OCC)nnc12,"inconclusive: 16.4 µM [cytotoxic, single point]",
Cn1nc(-c2ccc(Cl)cc2)c2cc(C(=O)N3CCCC3)sc21,"inconclusive: 29.1 µM [cytotoxic, single point]",
Nc1c(Cl)cc(C=O)cc1Cl,"inconclusive: 13 µM [rising, partial curve, poor fit]",
Cc1ccc(-c2sc(-c3ccccc3)nc2CC(=O)Nc2ccccc2F)cc1,"inconclusive: 29.1 µM [cytotoxic, single point]",
CC(=O)N1c2ccc(S(=O)(=O)NCCC(=O)NCCc3cccc(C)c3)cc2CC1C (configuration not stated),"inconclusive: 20.6 µM [cytotoxic, single point]",
Cc1ccccc1CS(=O)(=O)c1nnc([C@H](CC(C)C)NC(=O)OC(C)(C)C)o1,"inconclusive: 35.5 µM [cytotoxic, single point]",
COc1ccc(C2(Nc3cccc(C(=O)O)c3C)C(=O)c3ccccc3C2=O)cc1,"inconclusive: 20.6 µM [rising, single point]",
COc1ccc(/C=N/n2cnc3c([nH]c4ccc(F)cc43)c2=O)cc1CN1CCCC1,"inconclusive: 25.9 µM [cytotoxic, single point]",
O=C(Nc1ccc2c(c1)OCO2)c1c(F)cccc1F,"inconclusive: 20.6 µM [cytotoxic, single point]",
Cn1cc([N+](=O)[O-])c(C(=O)Nc2cc(Oc3ccccc3)cc([N+](=O)[O-])c2)n1,"inconclusive: 18.4 µM [cytotoxic, single point]",
Cc1cccc(N(CC(=O)NCc2ccco2)S(=O)(=O)c2ccccc2)c1,inactive,
COc1ccc(C(=O)N[C@H](C(=O)OCCCOC(=O)[C@@H](NC(=O)c2ccc(OC)cc2)C(C)C)C(C)C)cc1,inactive,
COCCOC(=O)C1=C(C)NC(=O)NC1c1cccs1 (configuration not stated),inactive,
Cc1nc([N+](=O)[O-])c(Br)n1Cc1ccc(Cl)c(Cl)c1,"inconclusive: 29.1 µM [cytotoxic, single point]",

Structure (SMILES),Potency,"activity change, negative = cytotoxic"
Cc1nn(-c2ccccc2)c(N2CCCC2)c1/C=N/n1cnc2scc(-c3ccccc3)c2c1=O,inactive,
Cc1ccc(S(=O)(=O)N2CCN(c3ncnc4sccc34)CC2)cc1C,"inconclusive: 11.6 µM [cytotoxic, partial curve, poor fit]",
Cn1c(=O)n(C)c2cc(NS(=O)(=O)c3ccc(F)cc3)ccc21,"inconclusive: 18.4 µM [cytotoxic, single point]",
N#Cc1ccc(C2=CC(=O)C[C@H](c3ccc(Cl)cc3)C2)cc1,"inconclusive: 23.1 µM [cytotoxic, single point]",
Cc1ccc(OCC(=O)N(c2ccc(C)cc2)S(=O)(=O)c2ccc(Cl)cc2)cc1,"inconclusive: 14.6 µM [rising, partial curve]",
CCn1c(=O)c2[nH]c(Cl)nc2n(CC)c1=O,inactive,
O=C(CC1S/C(=N/N=C/C=C/c2ccccc2)NC1=O)Nc1ccc(Cl)c(Cl)c1 (configuration not stated),inactive,
COc1ccc(OC)c(S(=O)(=O)N2CCCC(C(=O)NCc3ccccn3)C2)c1 (configuration not stated),inactive,
O=C(CNCC1CCCCC1)Nc1ccccc1N1CCCCC1,"inconclusive: 29.1 µM [cytotoxic, single point]",
COc1ccc(C)cc1NS(=O)(=O)c1ccc2c(c1)NC(=O)C(C)S2 (configuration not stated),inactive,
CCCCCCC1CCC(C(=O)Nn2c(C)nc3ccccc3c2=O)CC1 (configuration not stated),inactive,
O=C(NCc1ccc(F)cc1)N1CCc2ccccc2C1,inactive,
CC1(C(=O)NS(=O)(=O)c2cccc(Cl)c2)CCN1C(=O)Cc1ccc(-c2ccccc2)cc1 (configuration not stated),inactive,
Cc1ccc2nc(-c3cccc(NC(=O)c4ccc5c(c4)OCCO5)c3)oc2c1,"inconclusive: 0.0082 µM [rising, full curve]",
O=S(=O)(c1ccc(OCC(O)CNC23CC4CC(CC(C4)C2)C3)c(Cl)c1)N1CCOCC1 (configuration not stated),"inconclusive: 29.1 µM [cytotoxic, single point]",
Cc1cccc(C)c1OCC(=O)NC(Cc1c[nH]c2ccccc12)C(=O)O (configuration not stated),"inconclusive: 20.6 µM [rising, single point]",
CCOc1ccc(N(C)S(=O)(=O)c2ccc(C)c(C(=O)NCCc3ccc(OC)cc3)c2)cc1,"inconclusive: 20.6 µM [cytotoxic, single point]",
O=C(Cc1cn(Cc2cccc(Cl)c2)c2ccccc12)N1CCCCCC1,"inconclusive: 29.1 µM [cytotoxic, single point]",
O=C(CCCN1C(=O)/C(=C/c2ccccc2OC(F)F)SC1=S)Nc1cccnc1,"inconclusive: 29.1 µM [cytotoxic, single point]",
CCCN(Cc1nnc(-c2ccccc2Cl)o1)C(=O)COc1ccc(Cl)cc1,inactive,
COc1ccc(NC(=O)C(=O)NCCCO)cc1Cl,inactive,
O=C(Nc1cccnc1)c1ccc(Cl)c(S(=O)(=O)N2CCCC2)c1,inactive,
C=CCn1c(O)c(C(CC)=NCc2cccnc2)c(=O)[nH]c1=O,inactive,
CC1(C)Cc2c(C#N)c(N3CCN(C(=O)c4ccccc4)CC3)nc(-c3ccco3)c2CS1,"inconclusive: 29.1 µM [cytotoxic, single point]",

# 3 consecutive records from above, for reference:
Structure (SMILES),Potency,"activity change, negative = cytotoxic"
Cc1cc(C)c(OCC(=O)Nc2nc3ccccc3[nH]2)c(C)c1,inactive,
O=C(O)CCN1CC2([N+](=O)[O-])CC=C(OCCO)C([N+](=O)[O-])(C1)C2 (configuration not stated),inactive,
CC1(C)N=c2ccc([N+](=O)[O-])c(N)c2=[N+]1[O-],inactive,
